At least one structure is not confirmed: it was looked up by name or label, or the drawing left a doubt.
System: geranylgeranyltransferase I
Experiment: Inhibition of geranylgeranyltransferase I (glass fiber filter binding assay, H-Ras-CVLL, 3H-GGPP)
Type: biochemical, bovine
Conditions: for Activity: % inhibition at 1 × 10^−5 M: compound at 1 × 10^−5 M (Table 5)
Description: The ability of the compounds of the invention to inhibit protein farnesyltransferase or protein geranylgeranyltransferase can be measured according to the method of Moores, et al., J. Biol. Chem. 266: 14603 (1991) or the method of Vogt, et al., J. Biol. Chem. 270:660-664 (1995). In addition, procedures for determination of the inhibition of farnesylation of the oncogene protein Ras are described by Goldstein, et al., J. Biol. Chem., 266:15575-15578 (1991) and by Singh in U.S. Pat. No. 5,245,061.
Additional methods for the measurement of in vitro inhibition of protein prenylation (i.e., inhibition of farnesyltransferase or geranylgeranyltransferase) are described below.
Assays are performed using the glass fiber filter binding assay procedure with either rabbit reticulocyte lysate or Frase or GGTase I fractions isolated from bovine brains using a combination of hydrophobic and DEAE column chromatography procedures. Protein substrates are purchased from Panvera Corporation (H-ras for FTase, H-ras-CVLL for GGTase I). Tritium labeled prenyl lipid substrates (FPP or GGPP) are obtained from Amersham Life Science.
^3H-geranylgeranyldiphosphate (final concentration 0.5 μM), H-Ras-CVLL (final concentration 5.0 μM) and the test compound (various final concentrations from a stock solution in 1:1 DMSO/water; final concentration DMSO <2%) were mixed in buffer (50 mM Tris-HCl (pH 7.2), 30 mM MgCl2, 20 mM KCl, 10 μM ZnCl2, 5 mM DTT, 0.01% Triton X-100) to give a final volume of 50 μL. The mixture was brought to 37° C., treated with enzyme, and incubated for 30 minutes. 1 mL of 1 M HCl/ethanol was added to stop the reaction, and the mixture was allowed to stand for 15 minutes at room temperature then diluted with 2 mL of ethanol. The reaction mixture was filtered through a 2.5 cm glass microfiber filter from Whatman and washed with four 2 mL portions of ethanol. The glass filter was transferred to a scintillation vial, and 5 mL scintillation fluid was added. The radioisotope retained on the glass fiber filter was counted to reflect the activity of the enzymes. The IC50 value was calculated by measuring the activity of the enzyme over a suitable range of inhibitor concentrations.

| SMILES | Activity: % inhibition at 1 × 10^−5 M | also measured |
| --- | --- | --- |
| CC(C)C[C@H](NC(=O)c1ccc(NCc2cnc[nH]2)cc1-c1cccc2ccccc12)C(=O)O [Example 388, 4-[N-(1H-Imidazol-4-yl)methylamino-2-(1-naphthyl)benzoyl]leucine] | – | Activity: % inhibition at 1 × 10^−7 M (compound at 1 × 10^−7 M (Table 5)): >50% inhibition at 1 × 10^−7 M |
| CC(C)C[C@H](NC(=O)c1ccc(NCc2ccncc2)cc1-c1ccccc1)C(=O)O [Example 389, 5-[N-(4-Pyridinyl)methylamino-2-phenylbenzoyl]leucine] | – | Activity: % inhibition at 1 × 10^−6 M (compound at 1 × 10^−6 M (Table 5)): >50% inhibition at 1 × 10^−6 M |
| CC(C)C[C@H](NC(=O)c1ccc(NCc2cccnc2)cc1-c1ccccc1)C(=O)O [Example 390, 5-[N-(3-Pyridinyl)methylamino-2-phenylbenzoyl]leucine] | >50% inhibition at 1 × 10^−5 M | – |
| CC(C)C[C@H](NC(=O)c1ccc(NCc2ccccn2)cc1-c1cccc2ccccc12)C(=O)O [Example 392, 4-[N-(2-Pyridinyl)methylamino-2-(1-naphthyl)benzoyl]leucine] | >50% inhibition at 1 × 10^−5 M | – |

— US6693123B2 (University of Pittsburgh, priority 1995, dated 2004)
